The text below walks through data of article doi:10.1101/2020.07.15.204800 (bioRxiv, 2020).

Residue numbers refer to the chain shown, from its start. No constants are given. Whether binding was seen depends on the method and setting. Binding seen in cells or lysates may run through a third protein. Some results given as binding are weak or reduced against the parent protein; the word gives no strength. Sequences can lack the tags named with a protein.

Holding throughout (test): co-IP
Assay [1] deals with T1, GFP fusion of WDR41 374-393 (linker) (UniProt Q9HAD4).
T1 sequence: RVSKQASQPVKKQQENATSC

Assay [2] deals with T2, WDR41-HA G365V (UniProt Q9HAD4).
T2 sequence: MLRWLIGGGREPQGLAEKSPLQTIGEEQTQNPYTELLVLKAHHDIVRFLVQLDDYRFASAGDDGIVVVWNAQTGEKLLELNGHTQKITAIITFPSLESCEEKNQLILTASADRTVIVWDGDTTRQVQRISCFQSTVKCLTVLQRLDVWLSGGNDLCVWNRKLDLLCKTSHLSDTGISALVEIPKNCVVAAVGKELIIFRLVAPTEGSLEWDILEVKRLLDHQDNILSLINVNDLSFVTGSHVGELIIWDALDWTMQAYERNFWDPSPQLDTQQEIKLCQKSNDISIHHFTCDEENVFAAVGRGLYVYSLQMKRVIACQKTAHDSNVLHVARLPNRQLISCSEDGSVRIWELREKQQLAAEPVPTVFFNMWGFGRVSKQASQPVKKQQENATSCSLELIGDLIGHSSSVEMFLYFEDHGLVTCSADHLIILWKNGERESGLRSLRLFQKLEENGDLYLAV

Assay [3] has as its target T3, WDR41-HA F366A (UniProt Q9HAD4).
T3 sequence: T2 sequence with V365G, F366A

Assay [4] deals with T4, WDR41-HA with deletion of the second linker sub-region of the 7CD loop (374-393) (UniProt Q9HAD4).
T4 sequence: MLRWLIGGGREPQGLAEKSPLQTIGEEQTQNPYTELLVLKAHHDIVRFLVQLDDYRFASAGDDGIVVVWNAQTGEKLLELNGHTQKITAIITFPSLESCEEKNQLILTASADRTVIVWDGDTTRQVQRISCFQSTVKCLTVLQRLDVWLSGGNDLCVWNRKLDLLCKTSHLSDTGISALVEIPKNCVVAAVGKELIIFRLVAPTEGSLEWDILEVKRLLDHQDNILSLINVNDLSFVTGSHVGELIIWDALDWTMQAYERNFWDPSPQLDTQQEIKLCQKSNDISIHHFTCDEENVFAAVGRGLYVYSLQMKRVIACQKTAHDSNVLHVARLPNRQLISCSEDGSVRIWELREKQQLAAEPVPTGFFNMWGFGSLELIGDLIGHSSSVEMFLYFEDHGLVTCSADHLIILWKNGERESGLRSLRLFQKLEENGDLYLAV

For assay [5], the target named is T5, GFP fusion of WDR41 354-360 (linker) (UniProt Q9HAD4).
T5 sequence: KQQLAAE

Assay [6] addresses T6, WDR41-HA M369A (UniProt Q9HAD4).
T6 sequence: T2 sequence with V365G, M369A

In assay [7] the target is T7, WDR41-HA W370A (UniProt Q9HAD4).
T7 sequence: T2 sequence with V365G, W370A

Assay [8] deals with T8, WDR41-HA with deletion of the first linker sub-region of the 7CD loop (354-360) (UniProt Q9HAD4).
T8 sequence: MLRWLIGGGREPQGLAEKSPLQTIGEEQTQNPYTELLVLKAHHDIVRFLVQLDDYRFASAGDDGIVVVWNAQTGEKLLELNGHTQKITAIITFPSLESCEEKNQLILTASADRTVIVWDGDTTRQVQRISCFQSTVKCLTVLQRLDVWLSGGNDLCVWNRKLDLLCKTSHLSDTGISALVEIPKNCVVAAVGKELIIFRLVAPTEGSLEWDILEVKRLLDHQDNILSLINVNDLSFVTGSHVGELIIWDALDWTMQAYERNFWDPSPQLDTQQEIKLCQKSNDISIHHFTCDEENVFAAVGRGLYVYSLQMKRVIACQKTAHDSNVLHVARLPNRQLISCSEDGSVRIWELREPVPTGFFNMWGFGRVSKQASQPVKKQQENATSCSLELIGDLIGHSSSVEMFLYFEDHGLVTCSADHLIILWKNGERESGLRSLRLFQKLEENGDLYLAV

B1: SMCR8 (protein, UniProt Q8TEV9 1-937)
chain: MISAPDVVAFTKEEEYEEEPYNEPALPEEYSVPLFPFASQGANPWSKLSGAKFSRDFILISEFSEQVGPQPLLTIPNDTKVFGTFDLNYFSLRIMSVDYQASFVGHPPGSAYPKLNFVEDSKVVLGDSKEGAFAYVHHLTLYDLEARGFVRPFCMAYISADQHKIMQQFQELSAEFSRASECLKTGNRKAFAGELEKKLKDLDYTRTVLHTETEIQKKANDKGFYSSQAIEKANELASVEKSIIEHQDLLKQIRSYPHRKLKGHDLCPGEMEHIQDQASQASTTSNPDESADTDLYTCRPAYTPKLIKAKSTKCFDKKLKTLEELCDTEYFTQTLAQLSHIEHMFRGDLCYLLTSQIDRALLKQQHITNFLFEDFVEVDDRMVEKQESIPSKPSQDRPPSSSLEECPIPKVLISVGSYKSSVESVLIKMEQELGDEEYKEVEVTELSSFDPQENLDYLDMDMKGSISSGESIEVLGTEKSTSVLSKSDSQASLTVPLSPQVVRSKAVSHRTISEDSIEVLSTCPSEALIPDDFKASYPSAINEEESYPDGNEGAIRFQASISPPELGETEEGSIENTPSQIDSSCCIGKESDGQLVLPSTPAHTHSDEDGVVSSPPQRHRQKDQGFRVDFSVENANPSSRDNSCEGFPAYELDPSHLLASRDISKTSLDNYSDTTSYVSSVASTSSDRIPSAYPAGLSSDRHKKRAGQNALKFIRQYPFAHPAIYSLLSGRTLVVLGEDEAIVRKLVTALAIFVPSYGCYAKPVKHWASSPLHIMDFQKWKLIGLQRVASPAGAGTLHALSRYSRYTSILDLDNKTLRCPLYRGTLVPRLADHRTQIKRGSTYYLHVQSMLTQLCSKAFLYTFCHHLHLPTHDKETEELVASRQMSFLKLTLGLVNEDVRVVQYLAELLKLHYMQESPGTSHPMLRFDYVPSFLYKI
Turning to B1, the binding result in assay [1] is on record as “no binding”; in assay [2], “binds”; in assay [3], “binds”; in assay [4], “binds”; in assay [5], “no binding”; in assay [6], “binds”. Besides, the binding result in assay [7] and in assay [8] was “binds” in each case.

B2: PQLC2-FLAG wild type (protein, UniProt Q6ZP29 1-291)
chain: MVWKKLGSRNFSSCPSGSIQWIWDVLGECAQDGWDEASVGLGLISILCFAASTFPQFIKAYKTGNMDQALSLWFLLGWIGGDSCNLIGSFLADQLPLQTYTAVYYVLADLVMLTLYFYYKFRTRPSLLSAPINSVLLFLMGMACATPLLSAAGPVAAPREAFRGRALLSVESGSKPFTRQEVIGFVIGSISSVLYLLSRLPQIRTNFLRKSTQGISYSLFALVMLGNTLYGLSVLLKNPEEGQSEGSYLLHHLPWLVGSLGVLLLDTIISIQFLVYRRSTAASELEPLLPS
Regarding B2, the binding result in assay [1], in assay [2], in assay [3], in assay [4], in assay [5] and in assay [6] was “no binding” each time. For the same molecule, the binding result in assay [7] and in assay [8] was “no binding” in each case.
